The campaign covered roughly 400,000 compounds. About 5,500 (1.4%) were called active. The shares of active, inactive and inconclusive entries below differ from those in the screen. Calls follow the shape of the dose curve; as a rule, active = well fitted cell-killing curve with a large enough effect; inconclusive = small, poorly fitted or top-dose-only effect, or effect the other way; inactive = flat fitted curve, though single readings scatter. Where the call is inconclusive, the potency comes from a doubtful curve fit.
assay: qHTS assay for MDR1-selective chemotherapeutics: Primary screen using the parental adenocarcinoma cell KB-3-1; conditions: KB-3-1 viability, CellTiter-Glo ATP luminescence, 72 h; activity change, negative = cytotoxic: at 46.1 µM (top of the series); also: nearly all actives have a fitted effect of over 60% in size
Outline: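 Cytotoxicity measured as CellTiter-Glo luminescence after 72 h at 37 C. Compound titrations were pinned onto drug-naive KB-3-1 parental adenocarcinoma cells grown in DMEM with 10% FBS, and normalized data fitted to concentration-response curves.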
% is scaled to controls: 0 for no effect and ±100 for the full control effect; potency is read from the fitted curve at half-maximal effect.

With O=c1c2cnn(-c3ccccc3)c2nc(-c2ccco2)n1-c1ccccc1 as the compound, how does the Potency read?
The Potency was active: 14.6 µM.

Which “activity change, negative = cytotoxic” value does the source give for CN(C)c1ccc(/C=C/c2sc3ccccc3[n+]2Cc2ccccc2)cc1 here?
Its value is inactive: 0%.

With O=C(CCNC(=O)c1ccc([N+](=O)[O-])cc1)NCCc1ccc(Cl)cc1 as the compound, how does the “activity change, negative = cytotoxic” value read?
Its value is inactive: 8.6%.

For CC(C)(C)c1cc(NC(=O)c2cc(F)c(F)c(F)c2F)no1, which Potency is on record?
The Potency was inconclusive: 18.4 µM [cytotoxic, partial curve, poor fit].

With O=[N+]([O-])c1ccc2[nH]cc(S(=O)(=O)N3CCN(c4cccc(Cl)c4)CC3)c2c1 as the compound, how does the Potency read?
Its Potency is inconclusive: 29.1 µM [cytotoxic, single point].

With COc1ccc(-c2cccc([C@H]3[C@@H]4C=CCC[C@@]4(C)C(=O)N3Cc3ccccc3)c2)cc1 as the compound, how does the Potency read?
The Potency was inconclusive: 18.4 µM [cytotoxic, single point].

For Cc1nn(C)c(Oc2ccccc2)c1CCNS(=O)(=O)c1ccccc1, which Potency is on record?
Its Potency is inconclusive: 29.1 µM [cytotoxic, single point].

For C/C(=N\NC(=O)c1cc(C2CC2)nc2ccccc12)c1ccc(O)cc1O, which Potency is on record?
The Potency was inconclusive: 6.51 µM [cytotoxic, partial curve].

For O=C1Nc2ccccc2N(C(=O)c2ccc(-c3ccccc3)cc2)C1c1nc2ccccc2[nH]1 (stereo not given), which Potency is on record?
Its Potency is inconclusive: 18.4 µM [cytotoxic, single point].

Which Potency does the source give for Cc1ccc(C(=O)Cn2nnc(-c3ccccc3-n3cnnn3)n2)cc1 here?
The Potency was inconclusive: 18.4 µM [rising, single point].

Which “activity change, negative = cytotoxic” value does the source give for O=C(Nc1nnc(C2CCCCC2)s1)C1CC(=O)N(c2ccc(F)cc2)C1 (stereo not given) here?
The value was inactive: -8.88%.

Which “activity change, negative = cytotoxic” value does the source give for Cc1cccc(NC(=O)c2ccc(-c3ccccc3[N+](=O)[O-])o2)c1 here?
The value was inactive: 3.94%.

For CCCN(CCC)CC(O)Cn1cc(/C=C/C(=O)c2cccs2)c2ccccc21 (stereo not given), which Potency is on record?
Its Potency is inconclusive: 29.1 µM [cytotoxic, single point].

With Cc1cnc(C)c(Nc2nc(C(N)Cc3ccc(C(F)(F)F)cc3)cs2)n1 (stereo not given) as the compound, how does the Potency read?
The Potency was inconclusive: 25.9 µM [cytotoxic, single point].

With COc1ccc2c(c1)OC[C@H]1[C@H]2N2C(=O)c3cc(F)ccc3NC(=O)[C@@]2(C)[C@H]1c1ccccc1 as the compound, how does the Potency read?
Its Potency is inconclusive: 29.1 µM [cytotoxic, single point].

Which “activity change, negative = cytotoxic” value does the source give for CCOC(=O)CN1C(=O)C(C)(C)Oc2ccc(C(=O)Nc3ccccc3)cc21 here?
Its value is inactive: -1.52%.

With CNC(=O)/C=C1\NC(C)(C)Cc2c1ccc1ccccc21 as the compound, how does the Potency read?
Its Potency is inconclusive: 29.1 µM [cytotoxic, single point].

Which Potency does the source give for NC1=NN(c2cccc(C(=O)O)c2)C(=O)C1 here?
The Potency was inconclusive: 32.6 µM [rising, single point].

For Cc1c(Cl)ccc(S(=O)(=O)NCCCn2ccnc2)c1Cl, which “activity change, negative = cytotoxic” value is on record?
Its value is inactive: -7.6%.

For Fc1ccc2c(c1)Sc1ccc(Cl)cc1CC2N1CCN(CCC2OCCO2)CC1 (stereo not given), which Potency is on record?
Its Potency is inconclusive: 0.651 µM [rising, full curve, poor fit].

With CCc1nc(NCCc2ccccn2)c2nnn(Cc3ccccc3F)c2n1 as the compound, how does the “activity change, negative = cytotoxic” value read?
Its value is inactive: -1.02%.

Which Potency does the source give for O=C(N/N=C/c1cccc2ccccc12)c1n[nH]c2c1CCCC2 here?
Its Potency is active: 4.11 µM.

For COC(=O)c1ccccc1NCc1cc(=O)oc2cc(O)c(O)cc12, which Potency is on record?
The Potency was inconclusive: 20.6 µM [cytotoxic, single point].

With CC(C)COc1ccc(C(=O)Nc2cc(S(=O)(=O)N3CCOCC3)ccc2N2CCCC2)cc1 as the compound, how does the “activity change, negative = cytotoxic” value read?
The value was inactive: 6.48%.

For CC(C)C[C@@H](CN1CCC[C@H]1CN1C(=O)C(=O)NC[C@@H]1Cc1ccccc1)N1C[C@H](Cc2ccccc2)N(CC2CCCCC2)C(=O)C1=O, which Potency is on record?
The Potency was inconclusive: 20.6 µM [cytotoxic, single point].

Which Potency does the source give for N#CC(C#N)=c1ccc2c(c1)NC1(CCCCC1)N=2 here?
Its Potency is inconclusive: 29.1 µM [cytotoxic, single point].

For Cc1c(C(N)=O)sc2nc(-c3ccccc3)cn12, which Potency is on record?
The Potency was inconclusive: 29.1 µM [cytotoxic, single point].

For CC(C)(C)C(=O)Nc1sc(-c2ccccc2)cc1C(=O)O, which Potency is on record?
The Potency was active: 6.51 µM.

With Cn1c(-c2sc3ccccc3c2Cl)n[nH]c1=S as the compound, how does the Potency read?
Its Potency is active: 20.6 µM.

For CCN1C(=O)c2ccccc2Sc2ccc(NC(=O)c3ccc(C)c(F)c3)cc21, which Potency is on record?
The Potency was inconclusive: 29.1 µM [cytotoxic, single point].

With O=C(COc1ccc(Cl)cc1)NCCNC(=O)c1ccccn1 as the compound, how does the Potency read?
Its Potency is inconclusive: 0.206 µM [cytotoxic, full curve].

For COc1cc(OC)c(/C=C/c2ccc3ccccc3n2)c(OC)c1, which Potency is on record?
The Potency was active: 0.517 µM.

With O=C(CCl)N1c2ccccc2Sc2c1ccc1ccccc21 as the compound, how does the Potency read?
Its Potency is inconclusive: 29.1 µM [cytotoxic, single point].

Which Potency does the source give for COc1ccc(OC)c(/C=C/C(=O)c2ccc3c(c2)OCCO3)c1 here?
Its Potency is inconclusive: 29.1 µM [cytotoxic, single point].

With COc1cccc(NC(CNS(=O)(=O)c2ccc(C)cc2)c2ccccc2)c1 (stereo not given) as the compound, how does the Potency read?
Its Potency is inconclusive: 29.1 µM [cytotoxic, single point].

With O=C(Nc1cc(Cl)cc(Cl)c1)C1CCC(=O)N1Cc1ccccc1Cl (stereo not given) as the compound, how does the Potency read?
The Potency was inconclusive: 29.1 µM [cytotoxic, single point].

Which “activity change, negative = cytotoxic” value does the source give for CC(C)Cc1nnc(NC(=O)C2CCN(C(=O)c3ccc(Cl)cc3)CC2)s1 here?
Its value is inactive: -22.8%.

For S=C(NCC1CCCCC1)Nc1ccc(Oc2ccccc2)cc1, which Potency is on record?
Its Potency is inconclusive: 16.4 µM [cytotoxic, single point].

For O=C1/C(=C/Nc2ccc3c(c2)OCO3)CCc2ccccc21, which Potency is on record?
Its Potency is inconclusive: 23.1 µM [cytotoxic, single point].

Which “activity change, negative = cytotoxic” value does the source give for CCc1nc2n(n1)C(O)c1cc([N+](=O)[O-])ccc1S2 (stereo not given) here?
The value was inactive: 4.25%.

For C=CCOc1ccc(-c2nc3c(c(=O)[nH]c(=O)n3CCCC)n2C)cc1Br, which Potency is on record?
Its Potency is inconclusive: 6.51 µM [rising, full curve, poor fit].

Which Potency does the source give for Oc1ccc(-c2csc(-c3cccnc3)n2)cc1O here?
Its Potency is inconclusive: 23.1 µM [cytotoxic, partial curve, poor fit].

With O=C(COC(=O)c1ccccc1Br)NCCC1=CCCCC1 as the compound, how does the “activity change, negative = cytotoxic” value read?
The value was inactive: 22.6%.

Which Potency does the source give for CC(NC(=O)Cc1ccc(NS(=O)(=O)c2cccc(C(F)(F)F)c2)cc1)c1ccccn1 (stereo not given) here?
Its Potency is inconclusive: 23.1 µM [cytotoxic, single point].

Which activity change, negative = cytotoxic does the source give for O=C(NCCN1CCC(n2c(=O)[nH]c3ccccc32)CC1)c1ccc(F)cc1Cl here?
Its activity change, negative = cytotoxic is inconclusive: 4.99%.

Which Potency does the source give for Cc1ncc(CO)c2c1Oc1nc(-c3ccccc3)nc(SCC(=O)Nc3cccc(O)c3)c1C2 here?
The Potency was inconclusive: 29.1 µM [cytotoxic, single point].

For N#Cc1ccccc1NC(=O)CSc1nnc(-c2ccccc2)n1-c1ccccc1, which Potency is on record?
The Potency was inconclusive: 20.6 µM [cytotoxic, single point].

For CCc1nn(CCCC(=O)NC2CCCCC2C)c(=O)c2cc3occc3n12 (stereo not given), which Potency is on record?
The Potency was inconclusive: 29.1 µM [cytotoxic, single point].

Which Potency does the source give for CCOC(=O)CNC(=O)Cn1cnc2c(nnn2-c2cccc(Cl)c2)c1=O here?
The Potency was inconclusive: 29.1 µM [rising, single point].

For O=C(N/N=C/c1sc(=O)[nH]c1-[n+]1ccc2ccccc2c1)c1ccccc1[O-], which Potency is on record?
The Potency was active: 8.2 µM.

For O=C(Nc1ccccc1)c1ccc2c(c1)CCN2S(=O)(=O)c1ccccc1, which Potency is on record?
The Potency was inconclusive: 32.6 µM [cytotoxic, partial curve, poor fit].

Which Potency does the source give for O=C(/C=C/c1ccc2c(c1)OCO2)Nc1cccnc1 here?
The Potency was active: 8.2 µM.

Which “activity change, negative = cytotoxic” value does the source give for Cc1cc(=O)[nH]c(-n2nc(C)cc2C)n1 here?
The value was inactive: -16%.

With Cc1ccccc1OCC(=O)NNC(=O)Cn1[nH]c(=O)c2ccccc2c1=O as the compound, how does the “activity change, negative = cytotoxic” value read?
The value was inactive: 6.11%.

With COc1ccc(NC2CCCN(C(=O)C3(C)CCCCC3)C2)cc1OC (stereo not given) as the compound, how does the “activity change, negative = cytotoxic” value read?
The value was inactive: -1.5%.

Which “activity change, negative = cytotoxic” value does the source give for Cc1noc(C)c1S(=O)(=O)N1CCC(C(=O)N2CCN(c3ccccc3Cl)CC2)CC1 here?
The value was inactive: -6.89%.

With CSCC[C@@H](C(=O)NCCCCCCCCCCC(=O)N1CCN(C(=O)OC(C)(C)C)CC1)n1cc(CCO)nn1 as the compound, how does the Potency read?
Its Potency is inconclusive: 10.3 µM [cytotoxic, single point].

Which “activity change, negative = cytotoxic” value does the source give for CCn1c(N)c(C(=O)NCCCOC)sc1=S here?
Its value is inactive: 12.1%.

With O=C(NCc1ccccc1)c1cccc(NC(=O)c2ccccc2)c1 as the compound, how does the Potency read?
The Potency was active: 23.1 µM.

Which “activity change, negative = cytotoxic” value does the source give for Oc1ccccc1N1CCN(Cc2ncc(-c3ccccc3)o2)CC1 here?
The value was inactive: -5.99%.

For COc1ccc2c(c1OC)C(=O)OC2Nc1nc(-c2cc3ccccc3oc2=O)cs1 (stereo not given), which Potency is on record?
The Potency was inconclusive: 25.9 µM [cytotoxic, single point].

Which Potency does the source give for S=C(NCCN(C1CCCCC1)C1CCCC1)Nc1cccc(Cl)c1 here?
Its Potency is inconclusive: 20.6 µM [cytotoxic, single point].

With O=C(c1ccccc1)c1ccccn1 as the compound, how does the “activity change, negative = cytotoxic” value read?
The value was inactive: 1.08%.

Which Potency does the source give for O=C(Nc1ccc2oc(-c3ccccc3Cl)nc2c1)c1cncc(Br)c1 here?
The Potency was inconclusive: 18.4 µM [cytotoxic, partial curve, poor fit].

Which Potency does the source give for CCOC(=O)C(C)(C)N(Cc1cccc(C)c1)S(=O)(=O)c1ccc(Cl)c([N+](=O)[O-])c1 here?
The Potency was active: 20.6 µM.

For CC(C)(C)NC(=O)c1cccc(NC(=O)Cc2ccc(Br)cc2)c1, which Potency is on record?
Its Potency is inconclusive: 1.16 µM [cytotoxic, full curve, poor fit].

With Cc1cc(C)n(-c2nc(NCCO)c3c4c(sc3n2)CCCC4)n1 as the compound, how does the Potency read?
The Potency was inconclusive: 29.1 µM [cytotoxic, single point].

Which Potency does the source give for CN(CCOc1ccccc1)C(=O)c1ccc(Cl)c(S(=O)(=O)N2CCCCC2)c1 here?
The Potency was inconclusive: 7.31 µM [cytotoxic, partial curve, poor fit].

For CSc1ccccc1OCc1cc(C(=O)N2C[C@H]3CC[C@H]2C3)no1, which Potency is on record?
Its Potency is inconclusive: 25.9 µM [cytotoxic, single point].

With CCOC(=O)CCCCCC(=O)Nc1ccc2c(c1)C(=O)N([C@@H](C)CO)C[C@H](C)[C@H](CN(C)C(=O)c1ccccc1)OCCCC[C@H](C)O2 as the compound, how does the “activity change, negative = cytotoxic” value read?
Its value is inactive: 4.98%.

Source: PubChem BioAssay AID1347075 (National Center for Advancing Translational Sciences (NCATS), 2019)
